Laboratory results: publication PMC12048721
Results are given in words; binding and its absence hold for the method and conditions named. Some entries that bind do so weakly or less than the wild type.

Target: T1, mature NAG-1/GDF15 (UniProt Q99988)
T1 sequence: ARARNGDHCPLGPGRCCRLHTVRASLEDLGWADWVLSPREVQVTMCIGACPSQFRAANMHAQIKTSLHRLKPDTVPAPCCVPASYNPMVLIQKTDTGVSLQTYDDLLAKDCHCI
Assay: phage display screening; purified mature NAG-1/GDF15 as bait; T7 human colon cDNA library (Novagen); NAG-1/GDF15-bound phages isolated and identified by PCR in E. coli; only the target purified

B1: EpCAM (261-314 aa), phage-displayed fragment (domain or fragment, UniProt P16422 261-314)
chain: MQGLKAGVIAVIVVVVIAVVAGIVVLVISRKKRMAKYEKAEIKEMGEMHRELNA
binding: binds
